At least one structure is not confirmed: it was looked up by name or label, or the drawing left a doubt.
System: NIKS cells
Test: Inducible GKLF mRNA expression (pTRE2 vector, RT-PCR) in transfected NIKS cells
Format: cell-based, human
Conditions: doxycycline added 8 hours after transfection, 16 hours incubation, versus without doxycycline

C[C@H]1c2cccc(O)c2C(=O)C2=C(O)[C@]3(O)C(=O)C(C(N)=O)=C(O)[C@@H](N(C)C)[C@@H]3[C@@H](O)[C@@H]21 [doxycycline]
PCR product corresponding to spliced GKLF mRNA: more product was seen
